Experimental data published in the supplement of paper PMC5355238.
Structures can show the parent of a compound that is named as a salt. The list shows a part of the results. Many values rest on one well or one pass, so single values are uncertain.

What follows are compounds tested on Reh (assay: S-phase gammaH2AX median, Z-score vs plate median (drug alone); higher = more S-phase DNA damage). Conditions: MK1775 concentration 0 nM; 10 µM; 4 h.

SMILES | S-phase gammaH2AX median (Z-score)
CCNC(=O)c1noc(-c2cc(C(C)C)c(O)cc2O)c1-c1ccc(CN2CCOCC2)cc1 | -0.0816
COc1cc(/C=C(\C#N)C(=O)c2ccc(O)c(O)c2)cc(I)c1O [I-OMe-Tyrphostin AG 538] | -0.447
CC(C[N+](C)(C)C)OC(N)=O (centres undefined) [Bethanechol chloride] | 0.0291
CC(C)Oc1cc(Nc2nc(N[C@@H](C)c3ccc(F)cn3)ncc2Cl)n[nH]1 | -0.0932
N[C@@H](Cc1c[nH]cn1)C(=O)O [L-Histidine hydrochloride] | 0.0126
Cc1cn([C@H]2C[C@H](N=[N+]=[N-])[C@@H](CO)O2)c(=O)[nH]c1=O [3'-Azido-3'-deoxythymidine] | 0.551
COc1ccc([C@@H]2Sc3ccccc3N(CCN(C)C)C(=O)[C@@H]2OC(C)=O)cc1 [Diltiazem hydrochloride] | 0.0283
CC(=N)NCc1cccc(CN)c1 [1400W dihydrochloride] | 0.0267
O=C(CCCN1CCC(O)(c2ccc(Cl)cc2)CC1)c1ccc(F)cc1 [Haloperidol] | 0.0661
O=c1[nH]c2cc(Cl)ccc2c(O)c1-c1cccc(Oc2ccccc2)c1 | -0.0567
C=CCN1CCc2c(cc(O)c(O)c2Cl)C(c2ccccc2)C1 (centres undefined) [(?)-Chloro-APB hydrobromide] | -0.0252
N=C(N)SCCc1ccc(CCSC(=N)N)cc1 [1,4-PBIT dihydrobromide] | 0.317
CN1CCC(CNc2ccc3ncc(-c4cccc(OC(F)(F)F)c4)n3n2)CC1 [SGI-1776 free base] | -0.0893
CC(N)(Cc1ccc(O)cc1)C(=O)O (racemic) [DL-alpha-Methyl-p-tyrosine] | 0.00388
COc1c(C)c2c(c(O)c1C/C=C(\C)CCC(=O)OCCN1CCOCC1)C(=O)OC2 [Mycophenolate mofetil (CellCept)] | 0.0143
CN1C(C(=O)Nc2ccccn2)=C(O)c2ccccc2S1(=O)=O [Piroxicam] | 0.0875
COCCOC(=O)C1=C(C)NC(C)=C(C(=O)OC(C)C)C1c1cccc([N+](=O)[O-])c1 (centres undefined) [Nimodipine] | 0.121
NCCS [Cysteamine hydrochloride] | 0.0922
COC(=O)[C@@H](N)Cc1ccc(O)c(O)c1 [L-3,4-Dihydroxyphenylalanine methyl ester hydrochloride] | -0.0945
COc1ccc2c(c1)c(CC(=O)O)c(C)n2Cc1ccc(Cl)cc1 [1-(4-Chlorobenzyl)-5-methoxy-2-methylindole-3-acetic acid] | -0.0777

Exported in CSV form: part of the list above
SMILES,S-phase gammaH2AX median (Z-score)
CCNC(=O)c1noc(-c2cc(C(C)C)c(O)cc2O)c1-c1ccc(CN2CCOCC2)cc1,-0.0816
CC(C)Oc1cc(Nc2nc(N[C@@H](C)c3ccc(F)cn3)ncc2Cl)n[nH]1,-0.0932
COc1ccc([C@@H]2Sc3ccccc3N(CCN(C)C)C(=O)[C@@H]2OC(C)=O)cc1 [Diltiazem hydrochloride],0.0283
O=c1[nH]c2cc(Cl)ccc2c(O)c1-c1cccc(Oc2ccccc2)c1,-0.0567
COc1c(C)c2c(c(O)c1C/C=C(\C)CCC(=O)OCCN1CCOCC1)C(=O)OC2 [Mycophenolate mofetil (CellCept)],0.0143
CN1C(C(=O)Nc2ccccn2)=C(O)c2ccccc2S1(=O)=O [Piroxicam],0.0875
NCCS [Cysteamine hydrochloride],0.0922
"COC(=O)[C@@H](N)Cc1ccc(O)c(O)c1 [L-3,4-Dihydroxyphenylalanine methyl ester hydrochloride]",-0.0945
COc1ccc2c(c1)c(CC(=O)O)c(C)n2Cc1ccc(Cl)cc1 [1-(4-Chlorobenzyl)-5-methoxy-2-methylindole-3-acetic acid],-0.0777

Carrying on.

SMILES | S-phase gammaH2AX median (Z-score)
COc1ccc(COc2cc3oc(=O)c4cc(C(C)O)ccc4c3cc2OC)cc1 (centres undefined) [Palomid 529] | -0.0244
O=C(O)c1ccccc1Nc1cccc(OCc2ccc3ccccc3n2)c1 | 0.0868
COc1cc(C(O)C(=O)O)ccc1O (centres undefined) [(?)-Vanillylmandelic acid] | 0.132
CC(C)(C)NCC(O)c1ccc(O)c(CO)c1 (centres undefined) [Albuterol hemisulfate] | -0.133
CC(C)(C)NCC(O)c1ccc(O)c(CO)c1 (centres undefined) [Salbutamol] | -0.0734
CCCCCCCC/C=C\CCCCCCCC(=O)O [Oleic Acid] | 0.102
Cn1c(=O)c2c(ncn2C)n(C)c1=O [Caffeine] | -0.0175
CC[C@@H]1C(=O)N(C)c2cnc(Nc3ccc(C(=O)NC4CCN(C)CC4)cc3OC)nc2N1C1CCCC1 | -0.0777
Cc1c(OCC(F)(F)F)ccnc1C[S+]([O-])c1nc2ccccc2[nH]1 (centres undefined) [Lansoprazole] | 0.00946
[N-]=[N+]=Nc1ccc(C(=O)CSC[C@H](NC(=O)CC[C@H](N)C(=O)O)C(=O)NCC(=O)O)cc1 [S-(p-Azidophenacyl)glutathione] | 0.183
C#CCN(C)CC1=Cc2ccccc2Oc2ccccc21 | 0.128
CC[C@H](Nc1ncnc2[nH]cnc12)c1nc2cccc(F)c2c(=O)n1-c1ccccc1 | -0.0615
COc1ccccc1CNCCCCCCNCCCCCCCCNCCCCCCNCc1ccccc1OC [Methoctramine tetrahydrochloride] | 0.0781
O=C(NC1CCNCC1)c1n[nH]cc1NC(=O)c1c(Cl)cccc1Cl | -0.0592
CN(C)CCCC1(c2ccc(F)cc2)OCc2cc(C#N)ccc21 (centres undefined) [Citalopram hydrobromide] | 0.0874
Nn1nnc2ccccc21 [1-Aminobenzotriazole] | -0.0447
CCCC(CCC)C(=O)O [Valproic acid sodium salt (Sodium valproate)] | -0.0491
CN(C)CCC(c1ccc(Cl)cc1)c1ccccn1 (centres undefined) [(?)-Chlorpheniramine maleate] | 0.00971
C[C@H](O)C(=O)C1=Nc2c(nc(N)[nH]c2=O)NC1 [Sepiapterin] | 0.427
